Reference: paper PMC8891752
No constants are given. Whether binding was seen depends on the method and setting. Binding seen in cells or lysates may run through a third protein. Some results given as binding are weak or reduced against the parent protein; the word gives no strength. For some assays here: Sequences can lack the tags named with a protein.

Chains of the proteins cited; added tags and fusions are not shown.
UniProt P61421: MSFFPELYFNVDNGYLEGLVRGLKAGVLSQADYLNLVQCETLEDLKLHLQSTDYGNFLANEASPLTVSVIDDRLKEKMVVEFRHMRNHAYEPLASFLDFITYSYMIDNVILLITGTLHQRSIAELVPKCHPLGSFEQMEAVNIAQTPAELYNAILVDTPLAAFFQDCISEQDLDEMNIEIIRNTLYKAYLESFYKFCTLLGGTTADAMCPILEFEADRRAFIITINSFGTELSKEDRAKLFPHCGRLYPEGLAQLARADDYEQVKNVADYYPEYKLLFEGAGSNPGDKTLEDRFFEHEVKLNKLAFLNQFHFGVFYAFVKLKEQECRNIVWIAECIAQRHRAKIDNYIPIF

How the values were obtained:
HPS6 (endogenous) = molecular target: T1, HPS6 (endogenous) (UniProt Q86YV9); experiment: co-IP; endogenous immunoprecipitation of HPS6, ATP6V0D1 detected; data not shown; cells not given
T1 sequence: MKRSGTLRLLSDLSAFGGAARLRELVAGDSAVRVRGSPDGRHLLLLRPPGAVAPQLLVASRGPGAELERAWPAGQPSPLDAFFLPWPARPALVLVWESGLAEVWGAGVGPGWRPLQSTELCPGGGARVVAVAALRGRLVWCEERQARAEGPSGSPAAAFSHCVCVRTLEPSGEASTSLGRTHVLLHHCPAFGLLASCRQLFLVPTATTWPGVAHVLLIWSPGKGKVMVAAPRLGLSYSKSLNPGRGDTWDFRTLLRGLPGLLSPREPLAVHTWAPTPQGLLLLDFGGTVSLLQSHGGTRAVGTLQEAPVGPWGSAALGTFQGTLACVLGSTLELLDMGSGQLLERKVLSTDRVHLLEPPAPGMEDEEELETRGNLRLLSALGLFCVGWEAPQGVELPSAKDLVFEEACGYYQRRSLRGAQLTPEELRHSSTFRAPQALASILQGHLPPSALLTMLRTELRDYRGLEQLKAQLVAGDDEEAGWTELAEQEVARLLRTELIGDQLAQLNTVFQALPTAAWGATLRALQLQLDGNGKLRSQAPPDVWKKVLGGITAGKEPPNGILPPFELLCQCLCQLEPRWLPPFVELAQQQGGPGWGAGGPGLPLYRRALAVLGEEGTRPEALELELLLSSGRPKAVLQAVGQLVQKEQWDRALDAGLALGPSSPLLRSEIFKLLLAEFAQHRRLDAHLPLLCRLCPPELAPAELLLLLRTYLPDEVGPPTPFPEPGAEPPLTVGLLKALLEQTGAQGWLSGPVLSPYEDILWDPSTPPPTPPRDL

Flag-tagged HPS6 = molecular target: T2, Flag-tagged HPS6 (UniProt Q86YV9); experiment: co-IP; 293 T cells co-transfected with Flag-HPS6 and Myc-ATP6V0D1; lysate (Tris-HCl pH 7.4, NaCl, EDTA, 1% Triton X-100) incubated overnight at 4°C with anti-FLAG M2 affinity gel, washed 4 times; blots with anti-Myc and anti-Flag
T2 sequence: T1 sequence

Q: With “ATP6V0D1 (endogenous) (from UniProt P61421 1-351)” as the substance, how does the binding (HPS6 (endogenous)) read?
A: binds

Q: For “Myc-tagged ATP6V0D1 (from UniProt P61421 1-351)”, which binding (Flag-tagged HPS6) is on record?
A: binds
